# Laboratory results published in PMC7347845.
# Sequences of proteins named here, by UniProt entry; tags and fusion partners are left off.
# UniProt Q9NXL9: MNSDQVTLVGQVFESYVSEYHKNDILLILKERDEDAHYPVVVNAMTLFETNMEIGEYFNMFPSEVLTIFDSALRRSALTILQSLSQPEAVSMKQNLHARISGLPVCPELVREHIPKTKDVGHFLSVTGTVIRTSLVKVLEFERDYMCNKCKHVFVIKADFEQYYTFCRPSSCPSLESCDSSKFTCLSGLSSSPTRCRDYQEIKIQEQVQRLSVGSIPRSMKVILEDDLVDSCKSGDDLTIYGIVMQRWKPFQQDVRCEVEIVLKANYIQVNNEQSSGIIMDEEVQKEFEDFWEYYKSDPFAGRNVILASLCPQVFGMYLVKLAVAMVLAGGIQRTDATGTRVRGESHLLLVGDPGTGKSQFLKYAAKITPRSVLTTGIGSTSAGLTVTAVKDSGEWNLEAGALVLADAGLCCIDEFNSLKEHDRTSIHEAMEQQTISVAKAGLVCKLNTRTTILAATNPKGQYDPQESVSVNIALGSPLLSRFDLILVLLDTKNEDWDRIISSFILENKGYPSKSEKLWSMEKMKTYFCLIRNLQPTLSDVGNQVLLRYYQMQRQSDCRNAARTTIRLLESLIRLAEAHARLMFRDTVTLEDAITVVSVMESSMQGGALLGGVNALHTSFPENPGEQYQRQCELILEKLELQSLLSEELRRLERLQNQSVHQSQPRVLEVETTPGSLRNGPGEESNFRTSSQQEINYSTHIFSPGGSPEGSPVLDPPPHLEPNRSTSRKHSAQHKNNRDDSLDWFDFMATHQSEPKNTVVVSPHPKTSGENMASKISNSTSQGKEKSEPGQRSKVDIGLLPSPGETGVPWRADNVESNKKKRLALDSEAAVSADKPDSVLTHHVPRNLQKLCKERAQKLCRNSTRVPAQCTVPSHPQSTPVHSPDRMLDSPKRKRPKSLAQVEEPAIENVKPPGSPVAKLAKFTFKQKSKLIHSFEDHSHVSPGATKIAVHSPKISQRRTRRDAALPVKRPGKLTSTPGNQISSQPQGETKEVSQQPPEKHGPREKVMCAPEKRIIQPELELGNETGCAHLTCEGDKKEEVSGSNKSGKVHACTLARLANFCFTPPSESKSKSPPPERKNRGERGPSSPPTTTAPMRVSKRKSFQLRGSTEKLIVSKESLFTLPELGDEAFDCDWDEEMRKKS
# Molecular target: T1, S-Flag-streptavidin binding protein (SFB)-tagged HORMAD1 (human (cDNA from MDAH2774 cells)) (UniProt Q86X24)
# T1 sequence: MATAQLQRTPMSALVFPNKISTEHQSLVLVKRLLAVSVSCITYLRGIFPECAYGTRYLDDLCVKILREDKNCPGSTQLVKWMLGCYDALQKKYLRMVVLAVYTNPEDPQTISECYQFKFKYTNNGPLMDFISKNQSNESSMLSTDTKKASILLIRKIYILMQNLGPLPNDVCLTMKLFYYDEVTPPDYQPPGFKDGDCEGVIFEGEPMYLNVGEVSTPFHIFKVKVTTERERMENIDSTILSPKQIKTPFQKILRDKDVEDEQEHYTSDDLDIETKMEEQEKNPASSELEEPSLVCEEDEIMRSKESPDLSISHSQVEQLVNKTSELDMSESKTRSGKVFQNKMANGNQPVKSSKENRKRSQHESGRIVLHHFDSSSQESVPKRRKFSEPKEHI
# Assay: affinity purification with mass spectrometry; tandem affinity purification of SFB-HORMAD1 from stably expressing 293T cells: lysis in NETN300, streptavidin-conjugated beads 4 °C 2 h, biotin elution, S-protein agarose beads, washes in NETN100; eluate analysed by mass spectrometry
substance,measurement,value
"MCM9 (endogenous, 293T cells) (from UniProt Q9NXL9 1-1143)",binding,binds

# These are yes or no findings as the source states them, for the method shown. Binding seen in cells or lysates may run through a third protein. Here binding means that the protein was enriched with, or labelled near, the bait; the list need not be complete. Where a sequence is shown, tags or fusion partners need not be part of it.
